{"source": "PubChem BioAssay AID1224826 (NIAID, 2016)", "test": "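Regulators of Tlr4 signalling leading to Tnf-alpha expression in macrophages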 (primary screen)", "system": "RAW264.7 G9 macrophages from mouse bearing reporters for p65 (GFP) and the Tnf promoter (mCherry)", "knock-down reagent": "siRNA pool against mouse genes, 100 nM", "timing": "16 h of LPS stimulation, after 2 days of siRNA transfection", "challenge": "bacterial lipopolysaccharide (Salmonella minnesota R595), 10 ng/ml", "read-out": "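Nuclear mCherry signal of the Tnf promoter reporter measured by imaging after background removal, scaled to each plate median and turned into robust z-scores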", "scale": "Tnf reporter robust z-score: higher = stronger Tnf promoter reporter signal after LPS", "rule for the call": "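Called active when robust z-score is at most -1.3, matching the median of the Tlr4 knock-down control, or over 3; control wells and wells with under 50 cells never active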", "meaning of the calls": "active = Tnf reporter clearly lowered or raised; inactive = no clear change in Tnf reporter", "note": "Here is an unselected part of about 17,000 deposited reagents. About 1,110 of all reagents (6.6%) count as active. 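Active means lowered or raised reporter signal; replicate intensities are raw and not normalised per plate.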 Not all columns of the deposit are shown."}
{"Gene": "Tmem45a", "Tnf reporter robust z-score": -0.86, "fewer than 50 cells in well": "enough cells in well", "call": "inactive"}
{"Gene": "Gtf2h1", "Tnf reporter robust z-score": 2.14, "fewer than 50 cells in well": "enough cells in well", "call": "inactive"}
{"Gene": "Tacr1", "Tnf reporter robust z-score": -0.83, "fewer than 50 cells in well": "enough cells in well", "call": "inactive"}
{"Gene": "Fcho1", "Tnf reporter robust z-score": 0.17, "fewer than 50 cells in well": "enough cells in well", "call": "inactive"}
{"Gene": "Myd88", "Tnf reporter robust z-score": -2.01, "fewer than 50 cells in well": "enough cells in well", "call": "active"}
{"Gene": "Dclre1b", "Tnf reporter robust z-score": -0.24, "fewer than 50 cells in well": "enough cells in well", "call": "inactive"}
{"Gene": "Slc30a1", "fewer than 50 cells in well": "fewer than 50 cells per well; well left out of calls", "call": "inactive"}
{"Gene": "Rpl14", "fewer than 50 cells in well": "fewer than 50 cells per well; well left out of calls", "call": "inactive"}
{"Gene": "Taf13", "Tnf reporter robust z-score": 0.63, "fewer than 50 cells in well": "enough cells in well", "call": "inactive"}
{"Gene": "Gas2l1", "Tnf reporter robust z-score": 0.15, "fewer than 50 cells in well": "enough cells in well", "call": "inactive"}
{"Gene": "Purb", "Tnf reporter robust z-score": -0.63, "fewer than 50 cells in well": "enough cells in well", "call": "inactive"}
{"Gene": "Pla2g6", "Tnf reporter robust z-score": 0.3, "fewer than 50 cells in well": "enough cells in well", "call": "inactive"}

Part of the list above, reduced to “fewer than 50 cells in well”:
Rpl14: fewer than 50 cells per well; well left out of calls
Taf13: enough cells in well
